Experimental data as given in PubChem BioAssay AID504444 (National Center for Advancing Translational Sciences (NCATS), 2011).
Values joined by “and” are separate entries in the source; they are usually repeats but may differ in a detail not shown here. Identical values can stand only once. The whole screen tested about 360,000 compounds, of which about 7,500 (2.1%) were called active. Inconclusive means that the source gave no clear call. Such entries were picked first, then a sample of the others. Calls follow the shape of the dose curve; as a rule, active = well fitted inhibition curve with a large enough effect; inconclusive = small, poorly fitted or top-dose-only effect, or effect the other way; inactive = flat fitted curve, though single readings scatter. A potency beside an inconclusive call is a rough fit, not a confirmed value. More than one record can exist for a structure, and the calls need not agree.
Potency is read from the fitted curve at half-maximal effect.

Test: Nrf2 qHTS screen for inhibitors; also: nearly all actives have a fitted effect of over 60% in size
Conditions: A549 ARE-Fluc reporter, luciferase luminescence, 18-24 h; series mostly up to 46 µM
In short: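 Concentration-response testing used A549 ARE_Fluc cells at 5000 cells/well. Following an 18-24 h compound incubation, viability was read by fluorescence (Ex 405/Em 525) and luciferase output by luminescence.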
In the case of `CCOC(=O)C1(CCc2ccccc2)CCN(C(=O)C2CCOCC2)CC1`, the Potency is reported as “inactive”.
For `N#CC1=C(N2CCCCC2)c2cc3c(n2C1=O)CCCC3`, the Potency was inconclusive: 13 µM [falling, single point].
With `O=C(CC1CCCCC1)Nc1nc2ccccc2s1` the Potency was inconclusive: 1.64 µM [activator, full curve].
With `Cc1csc2nc(CNC(=O)c3ccco3)cn12` the Potency was inconclusive: 5.8 µM [activator, partial curve].
For `CC1CCC(NC(=O)c2cc3c(=O)n(C)c4ccccc4c3n2C)CC1` (stereo unspecified), the Potency was “inactive”.
In the case of `CCCNC(=O)NC(=O)COC(=O)CC(NC(N)=O)c1ccc(Cl)cc1` (stereo unspecified), the Potency is reported as inconclusive: 25.9 µM [falling, single point].
With `O=C(Nc1ccncc1)c1cccc2ccccc12` the Potency was inconclusive: 20.6 µM [falling, single point].
For `C=CCN1C(=O)/C(=C/c2ccc(O)cc2)S/C1=N/c1nccs1`, the Potency was inconclusive: 16.4 µM [falling, single point].
With `COc1ccc(/C=C/C(=O)c2ccc(C(=O)/C=C/c3ccc(OC)c(OC)c3)cc2)cc1OC` the Potency was inconclusive: 13 µM [falling, partial curve, poor fit].
For `COc1ccc(OC)c(NC(=O)NNC(=O)COc2ccc(F)cc2F)c1`, the Potency was “inactive”.
For `COc1ccc2c(c1)C(c1ccc([N+](=O)[O-])cc1)=NNC(c1ccco1)=N2`, the Potency was inconclusive: 18.4 µM [falling, partial curve, poor fit].
For `CCOc1ccc(/C=N/NC(=O)c2cc3c(OC)cc(OC)cc3[nH]2)cc1OC`, the Potency was inconclusive: 1.64 µM [falling, partial curve, poor fit].
For `COc1ccc(C(=O)Nc2ccc(S(=O)(=O)Nc3cnc4ccccc4n3)cc2)cc1`, the Potency was inconclusive: 14.6 µM [falling, partial curve, poor fit].
With `Cc1ccc(C(=O)Oc2csc(=S)n2C(=O)c2ccc(C)cc2)cc1` the Potency was inconclusive: 0.517 µM [falling, full curve, poor fit].
With `CCOc1ccc(CNC(=O)CSc2nnc(C)c3c(C)n(-c4ccc(Cl)cc4)nc23)cc1` the Potency was inconclusive: 0.0052 µM [activator, full curve, poor fit].
For `S=C(Nc1ccccc1)N1CCCCCC1`, the Potency was “inactive”.
In the case of `CCCc1nc2ccc(NC(=O)NCCC(=O)OCC)cc2c(=O)n1Cc1cccc(Cl)c1`, the Potency is reported as inconclusive: 6.51 µM [falling, full curve, poor fit].
For `C=CCNCCCCOc1ccc(OCC)cc1`, the Potency was inconclusive: 4.47 µM [activator, full curve].
In the case of `COc1ccccc1N1CCN(Cc2cn[nH]c2-c2ccc(F)cc2)CC1`, the Potency is reported as inconclusive: 16.4 µM [falling, partial curve, poor fit].
With `CCN(CC)C(=O)c1ccc2c(c1)N(Cc1ccc(C(F)(F)F)cc1)C(=O)c1ccccc1S2` the Potency was active: 11.6 µM.
For `C=C(C)n1c(=O)n(Cc2ccc(C)cc2)c2ccccc21`, the Potency was active: 16.4 µM.
In the case of `Cc1ccc(N2C(=O)CCSC23C(=O)N(Cc2ccccc2)c2ccccc23)cc1` (stereo unspecified), the Potency is reported as inconclusive: 32.6 µM [falling, single point].
With `O=C(Nc1nc(-c2nc3ccccc3s2)cs1)C1CC1` the Potency was inconclusive: 9.2 µM [activator, partial curve, poor fit].
In the case of `Cc1ccc(NC(=O)Nc2nnc(N3CCCC3)s2)cc1C`, the Potency is reported as inconclusive: 29.1 µM [falling, single point].
In the case of `COC(=O)C1CCc2c(ccc3c2CCCC3)C1=O` (stereo unspecified), the Potency is reported as inconclusive: 29.1 µM [activator, single point].
In the case of `COCc1ccc(C(=O)N2CCCC(C(=O)c3ccc(SC)cc3)C2)o1` (stereo unspecified), the Potency is reported as inconclusive: 32.6 µM [falling, single point].
For `COc1ccc(C(=O)N2CCN(c3nc4cc(C)ccc4cc3C#N)CC2)c(OC)c1`, the Potency was inconclusive: 23.1 µM [falling, single point].
With `CCOc1ccccc1CNC(=O)C1CCCN(c2nnc(C)c3c(C)n(-c4ccccc4)nc23)C1` (stereo unspecified) the Potency was “inactive and active: 23.1 µM”.
In the case of `COc1ccc(C(=O)N2CCN(c3ccccn3)CC2)cc1[N+](=O)[O-]`, the Potency is reported as inconclusive: 29.1 µM [falling, single point].
In the case of `O=C(NCCC1=CCCCC1)c1ccc(Cl)c(S(=O)(=O)N2CCCCC2)c1`, the Potency is reported as active: 14.6 µM.
With `Cc1ccc(-c2nnc(N3CCN(C(=O)CN4CCOCC4)CC3)c3ccccc23)cc1` the Potency was “inactive”.
With `Cc1nc(NC(=O)c2ccc(F)cc2)sc1C(=O)Nc1ccc2c(c1)CCC2` the Potency was “inactive”.
With `Cc1cc(-c2nn(-c3ccccc3F)cc2CN2CCN(c3ccncc3)CC2)c(C)s1` the Potency was inconclusive: 18.4 µM [activator, partial curve, poor fit].
With `O=C(Nc1ccn(Cc2c(F)c(F)cc(F)c2F)n1)c1ccc(COc2cc(Cl)ccc2Cl)o1` the Potency was inconclusive: 9.2 µM [falling, partial curve].
In the case of `CN1CCN(S(=O)(=O)c2ccc(N)cc2)CC1`, the Potency is reported as “inactive”.
For `COCCC1CCCCN1C(=O)c1cc(COc2ccc(-n3cncn3)cc2)on1` (stereo unspecified), the Potency was inconclusive: 5.17 µM [falling, partial curve, poor fit].
For `Cc1ccc(C(=O)Nc2ccc3c(c2)nc2n3CCSC2)cc1`, the Potency was “inactive”.
In the case of `C/C(=N\N1C(=O)c2ccccc2NC1c1ccccc1)c1ccccc1O` (stereo unspecified), the Potency is reported as inconclusive: 23.1 µM [activator, single point].
In the case of `Cc1ccccc1C(=O)N1CCC(C(=O)Nc2ccc(S(=O)(=O)N3C(C)CCCC3C)cc2)CC1` (stereo unspecified), the Potency is reported as inconclusive: 16.4 µM [falling, single point].
With `O=C(CN1C(=O)NC2(CCCC2)C1=O)OCC(=O)c1cccc(Cl)c1` the Potency was “inactive”.
In the case of `CCc1nn(CCCC(=O)NCc2ccc(OC(C)C)cc2)c(=O)c2cc3occc3n12`, the Potency is reported as inconclusive: 11.6 µM [falling, partial curve, poor fit] and inconclusive: 10.3 µM [falling, partial curve, poor fit].
For `O=c1[nH]c(-c2cccnc2)nc2ccccc12`, the Potency was inconclusive: 1.16 µM [falling, full curve, poor fit].
With `O=C(NC(=S)Nc1cccc(NC(=S)NC(=O)c2ccccc2)c1)c1ccccc1` the Potency was inconclusive: 1.46 µM [activator, full curve, poor fit].
With `Cc1c(C(C)C)c(=O)n(-c2ccc(S(=O)(=O)NCc3ccccc3)cc2)n1C` the Potency was active: 7.31 µM.
For `C=C(C)COc1ccc(-c2[nH]ncc2-c2ccccc2)c(O)c1`, the Potency was inconclusive: 29.1 µM [falling, single point].
With `CC(NC(=O)Cn1ccc2cc(S(=O)(=O)N3CCCCCC3)ccc21)c1ccccc1` (stereo unspecified) the Potency was inconclusive: 32.6 µM [falling, single point].
For `COc1ccc(C)cc1NC(=O)Nc1nnc(N2CCCCC2)s1`, the Potency was inconclusive: 29.1 µM [falling, single point].
In the case of `CCOC(=O)C1CCCN(c2nc3c(S(=O)(=O)c4ccc(CC)cc4)nnn3c3ccc(Cl)cc23)C1` (stereo unspecified), the Potency is reported as inconclusive: 1.46 µM [activator, partial curve, poor fit].
For `CC1=CC2C(C(O)CC3(C)C2CC(C)C32OCOC23COCO3)C2(C)C/C(=C\O)C(=O)C=C12` (stereo unspecified), the Potency was active: 20.6 µM.
In the case of `S=C(NCCc1ccccc1)Nc1ccccn1`, the Potency is reported as “inactive”.
In the case of `Cc1csc(NC(=O)c2cccn2C)n1`, the Potency is reported as inconclusive: 0.731 µM [activator, partial curve, poor fit].
With `O=C(NCc1ccccc1Cl)c1ccc(CS(=O)(=O)c2ccc(Br)cc2)o1` the Potency was active: 23.1 µM.
For `C=C(C)COc1ccc(-c2[nH]ncc2Oc2cccc(OC)c2)c(O)c1`, the Potency was inconclusive: 29.1 µM [falling, single point].
For `O=C(c1cc2cc(Br)ccc2[nH]1)N1CCc2ccccc21`, the Potency was inconclusive: 6.51 µM [activator, partial curve].
In the case of `CCC1CCCCN1C(=O)c1c[nH]c2ccc(S(=O)(=O)N(C)c3ccc(Cl)cc3)cc2c1=O` (stereo unspecified), the Potency is reported as inconclusive: 32.6 µM [falling, single point].
For `COc1ccc(/C=C/C(=O)Nc2ccc(-n3nncc3-c3ccc(OC)c(OC)c3)cc2)cc1OC`, the Potency was inconclusive: 11.6 µM [falling, partial curve].
For `COC(=O)c1ccc(NC(=O)C2CC2)o1`, the Potency was “inactive”.
With `O=C(/C=C\NCC(=O)c1ccccc1)c1ccc2ccccc2c1` the Potency was “inactive”.
With `COc1ccccc1-n1cnnc1SC(C)C(=O)Nc1ccc(NC(C)=O)cc1` (stereo unspecified) the Potency was “inactive”.
With `COc1cc(CNc2ncc(-c3ccc(Cl)cc3)n2C)cc(OC)c1OC` the Potency was inconclusive: 29.1 µM [falling, single point].
In the case of `CCOC(=O)C1C(=O)C=C(c2ccccc2)CC1c1ccccc1` (stereo unspecified), the Potency is reported as inconclusive: 29.1 µM [falling, single point].
With `CC(=O)N1CCN(C(=O)c2ccc(-c3ccccc3Cl)o2)CC1` the Potency was inconclusive: 5.8 µM [activator, full curve].
With `COC(=O)C[C@H]1c2cc(C(F)(F)F)ccc2S(=O)(=O)N1Cc1ccccc1` the Potency was inconclusive: 23.1 µM [activator, single point].
With `O=C(c1ccc2c(c1)OCCO2)C1CCN(C(=O)Nc2ccc(F)cc2)CC1` the Potency was inconclusive: 18.4 µM [falling, partial curve].
With `N#Cc1c(NC(=O)c2cc(-n3cnnc3)ccc2Cl)sc2c1CCCC2` the Potency was active: 23.1 µM.
For `O=C1CC(NCc2ccccc2)C(=O)N1c1ccc(F)cc1` (stereo unspecified), the Potency was inconclusive: 14.6 µM [activator, partial curve, poor fit].
